According to publication PMC7244744, “Vesicular transport mediates the uptake of cytoplasmic proteins into mitochondria in Drosophila melanogaster” (Nature Communications, 2020):
Results are given in words; binding and its absence hold for the method and conditions named. Binding seen in cells or lysates may run through a third protein.

Amino acid sequences for entries named in this document (tags omitted).
UniProt P29845: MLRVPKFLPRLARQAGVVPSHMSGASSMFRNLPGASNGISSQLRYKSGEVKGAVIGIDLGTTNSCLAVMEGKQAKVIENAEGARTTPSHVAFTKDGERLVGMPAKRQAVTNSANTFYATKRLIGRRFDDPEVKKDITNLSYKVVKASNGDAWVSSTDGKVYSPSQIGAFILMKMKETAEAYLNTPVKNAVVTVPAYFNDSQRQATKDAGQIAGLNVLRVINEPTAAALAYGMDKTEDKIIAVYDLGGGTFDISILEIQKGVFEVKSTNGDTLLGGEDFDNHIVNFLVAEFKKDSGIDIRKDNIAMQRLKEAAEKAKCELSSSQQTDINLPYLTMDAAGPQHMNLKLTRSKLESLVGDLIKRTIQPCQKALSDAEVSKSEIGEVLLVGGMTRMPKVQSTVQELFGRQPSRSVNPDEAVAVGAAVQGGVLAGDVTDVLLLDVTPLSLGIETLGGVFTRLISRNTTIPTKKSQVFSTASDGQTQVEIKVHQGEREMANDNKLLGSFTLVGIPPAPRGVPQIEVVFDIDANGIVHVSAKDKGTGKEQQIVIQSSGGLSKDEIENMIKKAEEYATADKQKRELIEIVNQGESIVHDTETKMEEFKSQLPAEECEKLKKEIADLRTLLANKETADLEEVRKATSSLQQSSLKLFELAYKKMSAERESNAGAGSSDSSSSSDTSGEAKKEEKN

Molecular target: T1, Dosmit (downsizing mitochondria), endogenous in S2 cells (Drosophila melanogaster (endogenous in S2 cells)) (UniProt Q9VAM6)
T1 sequence: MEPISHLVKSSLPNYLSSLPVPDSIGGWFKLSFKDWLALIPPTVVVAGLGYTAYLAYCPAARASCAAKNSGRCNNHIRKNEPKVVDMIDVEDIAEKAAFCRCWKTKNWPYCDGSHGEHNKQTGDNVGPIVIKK
Experiment: co-IP; lysate of S2 cells transfected with Rab32-HA or Hsc70-5-HA; immunoprecipitation of endogenous Dosmit with anti-Dosmit antibody and protein G Mag Sepharose beads, 4 °C; lysis buffer 50 mM Tris-HCl pH 8.0, 100 mM NaCl, 5 mM EDTA, 0.5% Nonidet P-40; blot for HA

binding: no binding
Substance: Hsc70-5-HA (from UniProt P29845 1-686)
